Laboratory results: US11324729B2, “NSD family inhibitors and methods of treatment therewith” (The Regents of the University of Michigan, priority 2017, dated 2022)
Some entries share one result that the patent states for a list of compounds.

What follows are compounds tested against NSD family protein (assay: IC50 for an NSD family protein (compounds tested for binding)).

| Compound | IC50 [µM] |
| --- | --- |
| Nc1nc2c(O)cc(C#CCNc3cccc(OCCc4ccncc4)c3)cc2s1 [Compound 179] | < 20 |
| CC1CN1c1cc(O)c2nc(N)sc2c1 (stereo not drawn) [Compound 151] | < 20 |
| C=CS(=O)(=O)NCCCC(=O)Nc1cccc(NCC#Cc2cc(O)c3nc(N)sc3c2)c1 [Compound 191] | < 20 |
| C#CC(=O)NCc1cccc(NCC#Cc2cc(O)c3nc(N)sc3c2)c1Cl [Compound 246] | < 20 |
| C=CC(=O)Nc1ccc(Oc2ccc(NCC#Cc3cc(O)c4nc(N)sc4c3)cc2)nc1 [Compound 242] | < 20 |
| C#CC(=O)NCc1cccc(NCC#Cc2cc(F)c3nc(N)sc3c2)c1 [Compound 262] | < 20 |
| Nc1nc2c(O)cc(Br)cc2s1 [Compound 22] | < 20 |
| C=CS(=O)(=O)NCc1cccc(OCC#Cc2cc(O)c3nc(N)sc3c2)c1 [Compound 285] | < 20 |
| Nc1nc2c(O)cc(C#CCNc3cccc(NC(=O)CCC4CCCC4)c3)cc2s1 [Compound 112] | < 20 |
| C=CS(=O)(=O)N(C)Cc1cccc(NCC#Cc2cc(O)c3nc(N)sc3c2)c1 [Compound 248] | < 20 |
| C=CS(=O)(=O)NCc1ccc(NCC#Cc2cc(O)c3nc(N)sc3c2)c(F)c1 [Compound 239] | < 20 |
| C=CS(=O)(=O)NCc1cccc(NCC#Cc2cc(O)c3nc(N)sc3c2)c1F [Compound 225] | < 20 |
| Nc1nc2c(O)cc(C#CCNc3cccc4cc[nH]c34)cc2s1 [Compound 163, 6-(3-((1H-Indol-7-yl)amino)prop-1-yn-1-yl)-2-aminobenzo[d]thiazol-4-ol] | < 20 |
| Nc1ccc(NCC#Cc2cc(O)c3nc(N)sc3c2)c(F)c1 [Compound 108] | < 20 |
| C=CS(=O)(=O)NCC(=O)Nc1cccc(NCC#Cc2cc(O)c3nc(N)sc3c2)c1 [Compound 196] | < 20 |
| C=CS(=O)(=O)NCc1cccc(OCC#Cc2cc(O)c3nc(N)sc3c2)c1Cl [Compound 291] | < 20 |
| C=CS(=O)(=O)NCc1ccc(NCC#Cc2cc(O)c3nc(N)sc3c2)cc1 [Compound 231] | < 20 |
| Nc1nc2c(O)cc(C#CCNc3ccc(Oc4ccc(NC(=O)/C=C/C(F)(F)F)nc4)cc3)cc2s1 [Compound 243] | < 20 |
| Nc1nc2c(O)cc(C#CCNc3cccc(NC(=O)CCn4cncn4)c3)cc2s1 [Compound 195] | < 20 |
| Nc1nc2c(O)cc(C#CCNc3cccc(NC(=O)CCc4nccs4)c3)cc2s1 [Compound 181] | < 20 |
| Nc1nc2c(O)cc(C#CCNc3cccc(NC(=O)CCc4cccs4)c3)cc2s1 [Compound 188] | < 20 |

| Compound | IC50 [µM] |
| --- | --- |
| Nc1nc2c(O)cc(C#CCNc3cccc(NC(=O)CC4CCCC4)c3)cc2s1 [Compound 252] | < 20 |
| C=CS(=O)(=O)NCC#Cc1ccccc1NCC#Cc1cc(O)c2nc(N)sc2c1 [Compound 205] | < 20 |
| Nc1nc2c(O)cc(C#CCNc3ccc(C(F)(F)F)cc3)cc2s1 [Compound 102] | < 20 |
| C=CS(=O)(=O)NCc1cc(NCC#Cc2cc(O)c3nc(N)sc3c2)ccc1Cl [Compound 241] | < 20 |
| C=CC(=O)Nc1cccc(NCC#Cc2cc(O)c3nc(N)sc3c2)c1 [Compound 91] | < 20 |
| COc1ccc(NCC#Cc2cc(O)c3nc(N)sc3c2)cc1 [Compound 104] | < 20 |
| C=CS(=O)(=O)NCCNC(=O)c1cc2cccc(NCC#Cc3cc(O)c4nc(N)sc4c3)c2[nH]1 [Compound 173] | < 20 |
| C=CC(=O)Nc1ccc(OCc2cccc(CC#Cc3cc(O)c4nc(N)sc4c3)c2)cc1 [Compound 281] | < 20 |
| C=CC(=O)Nc1ccc(CNC(=O)c2cc3cccc(NCC#Cc4cc(O)c5nc(N)sc5c4)c3[nH]2)cc1 [Compound 174] | < 20 |
| CCS(=O)(=O)NCc1cccc(NCC#Cc2cc(O)c3nc(N)sc3c2)c1 [Compound 222] | < 20 |
| Nc1nc2c(O)cc(C#CCNc3cccc(CNC(=O)/C=C/c4ccccn4)c3)cc2s1 [Compound 235] | < 20 |
| C#CCCN(Cc1cccc(NCC#Cc2cc(O)c3nc(N)sc3c2)c1)S(=O)(=O)C=C [Compound 236] | < 20 |
| C/C=C/S(=O)(=O)NCc1cccc(NCC#Cc2cc(O)c3nc(N)sc3c2)c1 [Compound 240] | < 20 |
| C=CS(=O)(=O)NCc1cccc(NCC#Cc2cc(O)c3nc(N)sc3c2)c1 [Compound 199, N-(3-((3-(2-amino-4-hydroxybenzo[d]thiazol-6-yl)prop-2-yn-1 yl)amino)benzyl)ethenesulfonamide] | < 20 |
| Nc1nc2c(O)cc(SSc3cc(O)c4nc(N)sc4c3)cc2s1 [Compound 61] | < 20 |
| C=CS(=O)(=O)NCc1cccc(NCC#Cc2cc(O)c3nc(N)sc3c2)c1Cl [Compound 230] | < 20 |
| C=CS(=O)(=O)NCC#Cc1cccc(NCC#Cc2cc(O)c3nc(N)sc3c2)c1 [Compound 200] | < 20 |
| C=CC(=O)Nc1ccc(Oc2ccc(NCC#Cc3cc(O)c4nc(N)sc4c3)cc2)cn1 [Compound 238] | < 20 |
| C=CS(=O)(=O)N1CCC(CCCC(=O)Nc2cccc(NCC#Cc3cc(O)c4nc(N)sc4c3)c2)CC1 [Compound 184] | < 20 |
| Nc1nc2c(O)cc(C#CCNc3ccccc3F)cc2s1 [Compound 96] | < 20 |
| Nc1ccc(CCC(=O)Nc2cccc(NCC#Cc3cc(O)c4nc(N)sc4c3)c2)cc1 [Compound 190] | < 20 |

| Compound | IC50 [µM] |
| --- | --- |
| Nc1nc2c(O)cc(C#CCNc3ccccc3N)cc2s1 [Compound 90] | < 20 |
| Nc1nc2c(O)cc(C#CCNc3cccc(CNC(=O)CC4CCCC4)c3Cl)cc2s1 [Compound 256] | < 20 |
| C=CS(=O)(=O)NCc1cccc(NCC#Cc2cc(O)c3nc(NC)sc3c2)c1 [Compound 229] | < 20 |
| Nc1nc2c(O)cc(C#CCNc3cccc(F)c3)cc2s1 [Compound 89] | < 20 |
| C=CS(=O)(=O)NCCCCCCC(=O)Nc1cccc(NCC#Cc2cc(O)c3nc(N)sc3c2)c1 [Compound 187] | < 20 |
| C#CC(=O)NCc1ccc(Cl)c(NCC#Cc2cc(O)c3nc(N)sc3c2)c1 [Compound 258] | < 20 |
| CC(C)CC(=O)N1CCC(COc2cccc(NCC#Cc3cc(O)c4nc(N)sc4c3)c2)CC1 [Compound 182] | < 20 |
| C=CC(=O)Nc1cccc(OCC#Cc2cc(O)c3nc(N)sc3c2)c1 [Compound 204] | < 20 |
| Nc1nc2c(O)cc(C#CCNc3ccc(Cl)cc3)cc2s1 [Compound 100] | < 20 |
| Nc1nc2c(O)cc(C#CCNc3cccc(NC(=O)CCC4CCCCC4)c3)cc2s1 [Compound 251] | < 20 |
| Nc1ccc(NCC#Cc2cc(O)c3nc(N)sc3c2)cc1 [Compound 92] | < 20 |
| CC#CC(=O)NCc1cccc(NCC#Cc2cc(O)c3nc(N)sc3c2)c1 [Compound 266] | < 20 |
| C=CC(=O)Nc1cccc(CC#Cc2cc(O)c3nc(N)sc3c2)c1 [Compound 211] | < 20 |
| C=CS(=O)(=O)NCc1cccc(NCC#Cc2cc(OC)c3nc(N)sc3c2)c1 [Compound 228] | < 20 |
| C=CS(=O)(=O)NCc1ccccc1NCC#Cc1cc(O)c2nc(N)sc2c1 [Compound 233] | < 20 |
| C=CS(=O)(=O)Nc1ccc(Cc2ccc(NCC#Cc3cc(O)c4nc(N)sc4c3)cc2)cc1 [Compound 247] | < 20 |
| C=CS(=O)(=O)N1CCc2ccc(NCC#Cc3cc(O)c4nc(N)sc4c3)cc2C1 [Compound 232] | < 20 |
| Nc1nc2c(O)cc(C#CCNc3cccc(NC(=O)CCc4ccco4)c3)cc2s1 [Compound 189] | < 20 |
| C=CC(=O)Nc1ccc(Cc2ccc(NCC#Cc3cc(O)c4nc(N)sc4c3)cc2)cc1 [Compound 224] | < 20 |
| C#CC(=O)NCc1cccc(NCC#Cc2cc3sc(N)nc3c(O)c2F)c1 [Compound 272] | < 20 |
| C=CC(=O)Nc1cccc(Cc2cccc(NCC#Cc3cc(O)c4nc(N)sc4c3)c2)c1 [Compound 223] | < 20 |

| Compound | IC50 [µM] |
| --- | --- |
| Nc1nc2c(O)cc(C#CCNc3cccc(NC(=O)CCc4c[nH]cn4)c3)cc2s1 [Compound 177] | < 20 |
| Nc1nc2c(O)cc(C#CCNc3ccc(F)cc3)cc2s1 [Compound 101] | < 20 |
| Nc1nc2c(O)cc(C#CCNc3cccc(NC(=O)CCc4ccncc4)c3)cc2s1 [Compound 175] | < 20 |
| C=CS(=O)(=O)N1CCC(COc2cccc(NCC#Cc3cc(O)c4nc(N)sc4c3)c2)CC1 [Compound 183] | < 20 |
| C=CS(=O)(=O)NCc1cccc(CC#Cc2cc(O)c3nc(N)sc3c2)c1 [Compound 288, N-(3-(3-(2-amino-4-hydroxybenzo[d]thiazol-6-yl)prop-2-yn-1-yl)benzyl)ethane sulfonamide] | < 20 |
| Nc1nc2c(O)cc(C#CCNc3cccc(OCCCc4ccncc4)c3)cc2s1 [Compound 178] | < 20 |
| C#CC(=O)NCc1cccc(NCC#Cc2cc(OC)c3nc(N)sc3c2)c1Cl [Compound 261] | < 20 |
| Nc1nc2c(O)cc(C#CCNc3cc(CNC(=O)CC4CCCC4)ccc3Cl)cc2s1 [Compound 257] | < 20 |
| Nc1nc2c(O)cc(C#CCNc3cccc(Cl)c3)cc2s1 [Compound 99] | < 20 |
| Nc1nc2c(O)cc(C#CCNc3ccccn3)cc2s1 [Compound 98] | < 20 |
| CCC1CN1c1cc(O)c2nc(N)sc2c1 (stereo not drawn) [Compound 152] | < 20 |
| C=CS(=O)(=O)N1CCc2cccc(NCC#Cc3cc(O)c4nc(N)sc4c3)c2C1 [Compound 227] | < 20 |
| CC(C)CCC(=O)Nc1cccc(NCC#Cc2cc(O)c3nc(N)sc3c2)c1 [Compound 254] | < 20 |
| C=CS(=O)(=O)NCc1cc(NCC#Cc2cc(O)c3nc(N)sc3c2)cc(NC(=O)CCC2CCCC2)c1 [Compound 255] | < 20 |
| Nc1nc2c(O)cc(C#CCNc3ccccc3C(F)(F)F)cc2s1 [Compound 103] | < 20 |
| C#CC(=O)NCCc1cccc(NCC#Cc2cc(O)c3nc(N)sc3c2)c1 [Compound 265] | < 20 |
| Nc1nc2c(O)cc(CS)cc2s1 [Compound 149] | < 20 |
| Nc1nc2c(O)cc(C#CCNc3cccc(NC(=O)CCn4cccn4)c3)cc2s1 [Compound 194] | < 20 |
| C#Cc1cc(O)c2nc(N)sc2c1 [Compound 71] | < 20 |
| C=CC(=O)Nc1ccc(OCC#Cc2cc(O)c3nc(N)sc3c2)cc1 [Compound 203] | < 20 |
| Nc1nc2c(O)cc(C#CCNc3cccc(NC(=O)CCc4cccnc4)c3)cc2s1 [Compound 176] | < 20 |
